Measured values as given in US20260240957 (published 2026).

Experiment: general procedure: Fmoc solid-phase peptide synthesis; Rink Amide MBHA resin
Conditions: whole synthesis

Substance: Ala^1-Val-Ser-Glu-His^5-Gln-Leu-Leu-His-Asp^10-Lys-Gly-Lys-Ser-Ile^15-Gln-Asp-Leu-Arg-Arg^20-Arg-Glu-Leu-Leu-Glu^25-Lys-Leu-Leu-Aib-Lys^30-Leu-His-Thr-Ala^34-NH2
- difficulty met: Gln^16 deletion impurity comprises up to 49% by weight of the crude abaloparatide product
